Laboratory results taken from publication PMC6838091.
These are yes or no findings as the source states them, for the method shown. Binding seen in cells or lysates may run through a third protein. A result given as binding can be weak or reduced; the word gives no strength.

Amino acid sequences for entries named in this document (tags omitted). A change or cut given only in a name is not applied to a line headed by its entry.
UniProt P23359: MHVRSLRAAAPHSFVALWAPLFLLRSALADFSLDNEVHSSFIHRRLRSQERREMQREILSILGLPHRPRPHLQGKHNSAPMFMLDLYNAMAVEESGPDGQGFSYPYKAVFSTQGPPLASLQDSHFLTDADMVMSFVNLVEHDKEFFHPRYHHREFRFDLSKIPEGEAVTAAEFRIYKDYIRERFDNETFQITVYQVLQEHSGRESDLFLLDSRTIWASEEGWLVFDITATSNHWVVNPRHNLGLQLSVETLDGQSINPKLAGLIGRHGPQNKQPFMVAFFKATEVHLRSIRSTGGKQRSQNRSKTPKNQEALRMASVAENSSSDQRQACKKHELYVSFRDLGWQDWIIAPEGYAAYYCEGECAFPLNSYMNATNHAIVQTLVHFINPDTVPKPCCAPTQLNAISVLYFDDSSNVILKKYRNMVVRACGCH

Target: T1, SPARC-like protein 1 (SPARCL1) (mouse (endogenous in C2C12)) (UniProt P70663)
T1 sequence: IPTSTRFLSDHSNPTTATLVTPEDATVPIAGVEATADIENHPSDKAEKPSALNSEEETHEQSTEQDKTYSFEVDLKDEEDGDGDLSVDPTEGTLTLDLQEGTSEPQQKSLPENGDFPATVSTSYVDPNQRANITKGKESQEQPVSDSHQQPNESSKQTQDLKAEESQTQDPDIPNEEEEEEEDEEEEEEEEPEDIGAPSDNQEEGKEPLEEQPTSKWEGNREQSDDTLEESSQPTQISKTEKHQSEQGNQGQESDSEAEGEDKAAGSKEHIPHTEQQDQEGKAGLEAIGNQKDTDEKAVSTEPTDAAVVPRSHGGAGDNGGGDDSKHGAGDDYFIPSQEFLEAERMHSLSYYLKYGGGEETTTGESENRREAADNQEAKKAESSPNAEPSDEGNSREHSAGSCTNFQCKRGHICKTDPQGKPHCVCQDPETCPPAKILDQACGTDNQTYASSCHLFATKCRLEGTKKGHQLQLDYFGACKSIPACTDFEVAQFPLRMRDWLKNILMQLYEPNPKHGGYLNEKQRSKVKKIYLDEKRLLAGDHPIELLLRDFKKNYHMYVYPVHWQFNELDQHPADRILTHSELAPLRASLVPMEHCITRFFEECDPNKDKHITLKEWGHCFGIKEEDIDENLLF
Assay: co-IP; endogenous proteins of C2C12 cells induced to differentiate for 72 h; precipitated in turn with SPARCL1 and BMP7 primary antibodies, IgG as negative control, Input as positive control; detected by immunoblot; buffer and conditions of the co-IP not told

binding: binds
Substance: bone morphogenetic protein 7 (BMP7) (from UniProt P23359)
